The values that follow come from publication PMC5053694.

Amino acid sequences for entries named in this document (tags omitted). Residues count along the entry.
UniProt Q9BYZ8, residues 23-158: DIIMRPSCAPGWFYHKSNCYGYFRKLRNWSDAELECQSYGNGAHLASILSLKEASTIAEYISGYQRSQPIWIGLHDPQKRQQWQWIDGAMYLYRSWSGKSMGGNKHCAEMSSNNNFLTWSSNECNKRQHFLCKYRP

No constants are given. Whether binding was seen depends on the method and setting. In cells and extracts the contact can be indirect. Some results given as binding are weak or reduced against the parent protein; the word gives no strength. Tags and fused reporters may be left off the sequences shown.

For this assay, the target named is T1, GPR37-HA (human) (UniProt O15354).
T1 sequence: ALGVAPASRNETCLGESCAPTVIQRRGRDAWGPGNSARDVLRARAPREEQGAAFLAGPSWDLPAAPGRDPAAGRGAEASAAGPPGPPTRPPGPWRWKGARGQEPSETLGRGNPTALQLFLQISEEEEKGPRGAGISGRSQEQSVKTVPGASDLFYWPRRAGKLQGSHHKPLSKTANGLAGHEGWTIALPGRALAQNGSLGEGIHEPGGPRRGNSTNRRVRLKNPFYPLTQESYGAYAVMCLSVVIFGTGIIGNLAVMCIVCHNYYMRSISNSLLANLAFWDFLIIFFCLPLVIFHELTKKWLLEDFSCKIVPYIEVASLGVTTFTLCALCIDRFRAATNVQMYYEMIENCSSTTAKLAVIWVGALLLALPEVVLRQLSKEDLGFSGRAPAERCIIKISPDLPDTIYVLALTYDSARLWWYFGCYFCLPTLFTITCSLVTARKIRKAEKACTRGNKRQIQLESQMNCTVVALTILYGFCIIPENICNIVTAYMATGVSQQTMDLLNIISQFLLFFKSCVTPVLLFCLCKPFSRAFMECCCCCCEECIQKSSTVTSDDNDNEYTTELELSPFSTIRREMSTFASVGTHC
In words: co-IP; whole cell extracts of SGC-7901/REG4-Flag immunoprecipitated with anti-Flag antibody, and of SGC-7901/GPR37-HA with anti-HA antibody; blots with anti-GPR37 and anti-REG4 antibody.

Take “REG4 (in SGC-7901/GPR37-HA cells, detected with anti-REG4 antibody) (from UniProt Q9BYZ8 23-158)”: the binding result was “binds”.
